Data: PubChem BioAssay AID540256 (National Center for Advancing Translational Sciences (NCATS), 2011)
“And” between values parts separate entries of the source, which are not always exact repeats. Identical values can stand only once. The campaign covered roughly 300,000 compounds. About 3,700 (1.2%) were called active. The inconclusive results got no clear call from the source; some entries with a clear call stand among them for comparison. Calls follow the shape of the full dose curve; tested in HEK293 cells. A potency beside an inconclusive call is a rough fit, not a confirmed value.

experiment: qHTS for Inhibitors of binding or entry into cells for Lassa Virus; conditions: Lassa virus pseudotype entry inhibition, cell reporter; activity change, negative = inhibition: at 37.9 µM (top of the series) unless noted; also: nearly all actives have a fitted effect of over 50% in size
% is scaled to controls: 0 for no effect and ±100 for the full control effect; potency is read from the fitted curve at half-maximal effect.

| SMILES | Potency | activity change, negative = inhibition |
| --- | --- | --- |
| CC(=O)NCCc1nc2ccccc2n1CCCCOc1ccc(Cl)cc1 | inconclusive: 2.24 µM [inhibitor, partial curve, poor fit] |  |
| COc1ccc(-c2cc(C(C)=O)c(C)n2CCC(=O)Nc2cc(C)ccc2OC)cc1 | inconclusive: 35.5 µM [inhibitor, partial curve, poor fit] |  |
| COCc1cc(C)nc2sc3c(c12)NC(c1ccc(NC(C)=O)cc1)N(c1ccc(C)cc1)C3=O (configuration not stated) | inconclusive: 7.94 µM [inhibitor, partial curve, poor fit] |  |
| COc1ccc(/C=C/C2=CC(C)(C)NC(=S)N2)c(OC)c1 | inconclusive: 12.6 µM [inhibitor, single point] |  |
| COc1ccc(C(C)(C)C)cc1NC(=O)OC[C@@H]1CSCCS(=O)(=O)N1 | inactive |  |
| Cc1ccc(-c2cc(-c3ccc(Cl)cc3)c(C#N)c(N)n2)o1 | inconclusive: 35.5 µM [inhibitor, single point] |  |
| O=C1CCSC2(C(=O)N(Cc3ccc(F)cc3)c3ccccc32)N1c1ccccc1 (configuration not stated) | inconclusive: 17.8 µM [inhibitor, single point] |  |
| O=C(c1ccc(COc2ccccc2Cl)o1)N1CCN(Cc2ccc3c(c2)OCO3)CC1 | inconclusive: 35.5 µM [inhibitor, single point] and inconclusive: 14.1 µM [inhibitor, partial curve, poor fit] |  |
| CCCN(CCC)C1CCc2cccc(O)c2C1 (configuration not stated) | inconclusive: 0.651 µM [inhibitor, full curve, poor fit] |  |
| COc1ccc(C/C(N)=N/OC(=O)c2ccc(Cl)cc2)cc1 | inconclusive: 12.6 µM [inhibitor, partial curve, poor fit] |  |
| C/C(O)=c1/ccc2cccc3nc(C)nc1c23 | inactive |  |
| CCc1ccccc1NC(=O)CSC1=C(C#N)C(c2ccc(O)c(OC)c2)C2=C(CCCC2=O)N1 (configuration not stated) | inconclusive: 35.5 µM [inhibitor, single point] |  |
| NC(=O)c1ccccc1NC(=O)/C=C/c1cccc(Cl)c1 | inactive |  |
| O=C(CSc1nnc(-c2n[nH]c3ccccc23)n1-c1ccccc1)Nc1ccccc1Cl | inconclusive: 25.9 µM [inhibitor, single point] |  |
| Cc1cc(C)n(-c2nc3ccccc3nc2Nc2cccc(C(F)(F)F)c2)n1 | inconclusive: 35.5 µM [activator, single point] |  |
| COc1ccc(-c2nnc(Nc3ccc(OCC(N)=O)cc3)c3ccccc23)cc1 | inconclusive: 6.31 µM [activator, single point] |  |
| CCc1ccccc1OCCCCN1CCCCC1 | inconclusive: 15.8 µM [inhibitor, single point] |  |
| COc1ccc(NS(=O)(=O)c2ccc3nc(COc4ccc5ccccc5c4)[nH]c3c2)cc1 | inconclusive: 35.5 µM [inhibitor, single point] |  |
| COCC(C)n1c(SCc2ccc(C(=O)OC)o2)nc2ccccc2c1=O (configuration not stated) | active: 10.3 µM |  |
| Cc1cc(C)n(-c2nnc(C)n2/N=C/c2cc(Br)ccc2OCc2ccccc2)n1 | inconclusive: 35.5 µM [inhibitor, single point] |  |
| Cc1ccc(OCC(=O)Nc2ccc(C(=O)OCc3cc(=O)n4nc(C5CC5)sc4n3)cc2)cc1 | inconclusive: 3.16 µM [inhibitor, single point] |  |

| SMILES | Potency | activity change, negative = inhibition |
| --- | --- | --- |
| Cc1ccc(NC(=O)C(=O)NCC(c2cccnc2)N2CCN(C)CC2)cc1C (configuration not stated) | inactive |  |
| C#CCN1Cc2ccccc2Oc2cc(Br)ccc2S1(=O)=O | inconclusive: 0.28 µM [activator, full curve, poor fit] |  |
| O=C(CSc1nnc(C2CCCCC2)n1-c1ccccc1)NCc1ccco1 | inactive |  |
| CCCC(=O)O[C@H]1C[C@@H](C)N(C(=O)c2ccccc2)c2ccc(C)cc21 | inconclusive: 17.8 µM [inhibitor, partial curve, poor fit] |  |
| O=C(Nc1ccc(C(F)(F)F)cc1)C1CCCN1S(=O)(=O)c1cccc2cccnc12 (configuration not stated) | inconclusive: 29.1 µM [inhibitor, single point] |  |
| O=C(NNC(=S)NC(=O)C12CC3CC(CC(C3)C1)C2)c1ccncc1 | inconclusive: 13 µM [inhibitor, single point] |  |
| Cc1ccc(C)c(N2CCN(c3ncccc3[N+](=O)[O-])CC2)c1 | inconclusive: 2.51 µM [inhibitor, full curve] |  |
| CCN1CCN(C(=O)c2ccc3c(c2)N(Cc2cccc(Cl)c2)C(=O)c2ccccc2S3(=O)=O)CC1 | inconclusive: 22.4 µM [activator, partial curve, poor fit] |  |
| C/C(CC(=O)Nc1ccc2ccccc2c1)=N\NC(=O)c1cnccn1 | inactive |  |
| CCc1nnc(SCc2ccc(F)cc2Cl)c2cc3sccc3n12 | inactive |  |
| Cc1ccc(C)c(NC(=O)C(C)n2c(=O)cc(C(F)(F)F)c3c(C)nn(C)c32)c1 (configuration not stated) |  | inconclusive: 34.8% [activator] [at 46.1 µM] |
| CC1CCC(NC(=O)c2ccc3c(c2)N(Cc2cccc(F)c2)C(=O)c2ccccc2S3)CC1 (configuration not stated) | inactive |  |
| Cc1cc(NC(=O)c2ccc(C(C)(C)C)cc2)no1 | inconclusive: 2.51 µM [inhibitor, full curve, poor fit] |  |
| O=C(CCNC(=O)c1ccccc1Cl)NCc1cccnc1 | inactive |  |
| COc1ccc(NC(=O)NN(C(=O)c2ccccc2)C(C)(C)C)cc1 | inactive |  |
| N/C(Cc1ccc(Cl)cc1)=N\OC(=O)c1ccc2ccccc2c1 | inconclusive: 35.5 µM [inhibitor, single point] |  |
| COC(=O)/C(=C\c1cc(OC)c(OC)c(OC)c1)c1nc2ccccc2[nH]1 | inconclusive: 7.94 µM [inhibitor, partial curve, poor fit] |  |
| Clc1ccc(-c2nc3ccncc3[nH]2)cc1 | inactive |  |
| c1ccc(CNc2nc(NCc3ccccc3)c3ccccc3n2)cc1 | active: 10 µM |  |
| CCOC(=O)c1c(N)sc(C(=O)Nc2ccc3c(c2)OCO3)c1C | inconclusive: 9.2 µM [inhibitor, partial curve, poor fit] |  |
| Fc1ccc(-c2cc(-c3nc(-c4cccc(Cl)c4)no3)[nH]n2)cc1 | inactive |  |
